System: patients with CAD and LDL-C≧130 mg/dL
Settings: duration of the 18-month trial

Structure (SMILES): CC(C)c1c(C(=O)Nc2ccccc2)c(-c2ccccc2)c(-c2ccc(F)cc2)n1CC[C@@H](O)C[C@@H](O)CC(=O)O [atorvastatin]
- patients able to remain on drug therapy alone without any adverse cardiovascular events: 87%

Reference: patent publication US20080119561A1, “METHODS FOR PREVENTING OR DELAYING CATHETER- BASED RESVASCULARIZATION” (Pfizer Inc, priority 1998, published 2008)
